PubChem BioAssay AID489008 (National Center for Advancing Translational Sciences (NCATS), 2010)
The inconclusive results got no clear call from the source; some entries with a clear call stand among them for comparison. Potencies beside an inconclusive call are fits to weak or partial responses and may not hold up. Active and inactive are the calls of the source. Calls follow the shape of the dose curve; as a rule, active = well fitted inhibition curve with a large enough effect; inconclusive = small, poorly fitted or top-dose-only effect; inactive = flat fitted curve, though single readings scatter.

By UniProt entry, the sequences of proteins in these tests, tags left out. Residues count along the entry.
UniProt P02791, 2-175 limits assumed: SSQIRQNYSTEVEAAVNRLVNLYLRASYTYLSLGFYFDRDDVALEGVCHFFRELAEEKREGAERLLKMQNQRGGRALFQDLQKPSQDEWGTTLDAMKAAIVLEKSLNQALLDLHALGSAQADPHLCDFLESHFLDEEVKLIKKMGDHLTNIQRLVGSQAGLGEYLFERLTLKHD

The compounds below were run against Ferritin light chain (Equus caballus) (UniProt P02791) (assay: Confirmation Assay for Identification of Novel General Anesthetics). Conditions: apoferritin 1-aminoanthracene fluorescence displacement.
How it was run: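 Horse apoferritin (10 uM) pre-loaded with 1-AMA (50% saturated, PBS) exposed to compounds 10 min at room temperature; loss of 1-AMA fluorescence (380/535 nm) scaled between free and bound ligand, curves fitted with Hill equation.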
Also: nearly all actives have a fitted effect of over 40% in size.
Potency is read from the fitted curve at half-maximal effect.

Row | Structure (SMILES) | Potency
1 | CC(C)N(Cc1cc2ccccc2[nH]c1=O)C(=O)C(C)(C)C | inconclusive: 35.5 µM [inhibitor, partial curve]
2 | CCc1ccc(C(=O)CCC2CCCCC2=O)cc1 (stereo not drawn) | inconclusive: 50.1 µM [inhibitor, partial curve]
3 | Cc1ccc(CNC(=O)c2nnn(-c3cccc(C)c3)c2N)cc1 | active: 17.8 µM
4 | CC(C)(C)c1ccc(NC(=O)CC2(C(F)(F)F)OCCO2)cc1 | inconclusive: 8.91 µM [inhibitor, full curve]
5 | CC(=O)Cn1nnc2sc3c(c2c1=O)CCC(C(C)(C)C)C3 (stereo not drawn) | inconclusive: 31.6 µM [inhibitor, partial curve]
6 | O=C(NC1CCCCCCC1)c1ccc(Br)o1 | active: 17.8 µM
7 | CCc1ccccc1NS(=O)(=O)Cc1ccccc1 | inconclusive: 17.8 µM [inhibitor, partial curve]
8 | CCOC(=O)C(C)(C)C(=O)C(C)(C)C(O)c1ccccn1 (stereo not drawn) | inconclusive: 31.6 µM [inhibitor, partial curve]
9 | c1cc2cn[nH]c2cc1NC1CCCCCC1 | active: 15.8 µM
10 | CCc1ccc(CNC(=O)Cn2nc(-c3ccccc3)ccc2=O)cc1 | active: 10 µM
11 | Cc1ccccc1CSCC(=O)NC(=O)NCc1ccco1 | inconclusive: 35.5 µM [inhibitor, partial curve]
12 | COc1cccc(NS(=O)(=O)CC23CCC(CC2=O)C3(C)C)c1 (stereo not drawn) | inconclusive: 15.8 µM [inhibitor, partial curve]
13 | COc1ccccc1-n1cnc2cc(NCc3cccs3)ccc21 | inconclusive: 31.6 µM [inhibitor, partial curve]

Quoted from the listing:
Value of Cc1ccc(CNC(=O)c2nnn(-c3cccc(C)c3)c2N)cc1 under Potency: active: 17.8 µM
Value of CCc1ccc(CNC(=O)Cn2nc(-c3ccccc3)ccc2=O)cc1 under Potency: active: 10 µM
